# Measurements as given in the supplement of paper PMC10373366.
# Structures can show the parent of a compound that is named as a salt. This is one part of the list. Many values rest on one well or one pass, so single values are uncertain.
# Tests used:
# A2780 = test: cell growth inhibition ratio vs untreated control (CCK8); higher = stronger inhibition of cell viability; settings: 10 µM; 48 h
# Experimental: (§1)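 Natural product library (Topscience) screened at 10 µM final concentration for 48 h on ovarian cancer A2780 cells and patient-derived ovarian cancer cells (PDC) in 96-well plates; viability read by CCK8 and reported as inhibition ratio (%) relative to untreated control. Single-dose primary screen.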
# [1] = tested on: patient-derived ovarian cancer cells (PDC); test: as above; settings: 10 µM; 48 h
# Experimental: as §1
SMILES,cell growth inhibition ratio (A2780) [%],cell growth inhibition ratio [1] [%]
COc1cc(/C=C/C(=O)O)ccc1O [Ferulic Acid],8.44,8.28
O=C(O)c1cc(O)c2c(c1)C(=O)c1cccc(O)c1C2=O [Rheic Acid],-0.92,-5.12
OC[C@H]1NC[C@H](O)[C@@H](O)[C@@H]1O [1-Deoxynojirimycin],6.4,-1.22
COc1c2ccoc2cc2oc(=O)ccc12 [Bergapten],11.6,-13.8
OC[C@H]1O[C@@H](O[C@@H]2OC=C[C@H]3[C@H](O)[C@@H]4O[C@]4(CO)[C@@H]23)[C@H](O)[C@@H](O)[C@@H]1O [Catalpol],-29.4,-4.79
NCCS(=O)(=O)O [Taurine],5.99,-10.8
C1CCN2C[C@@H]3C[C@@H](CN4CCCC[C@@H]34)[C@H]2C1 [(-)-Sparteine sulfate pentahydrate],7.7,-2.76
COc1cc(-c2oc3cc(O)cc(O)c3c(=O)c2O[C@@H]2O[C@H](CO)[C@@H](O)[C@H](O)[C@H]2O[C@@H]2O[C@@H](C)[C@H](O)[C@@H](O)[C@H]2O)ccc1O,2.46,-5.29
C[C@@H]1CC[C@]2(C(=O)O[C@@H]3O[C@H](CO)[C@@H](O)[C@H](O)[C@H]3O)CC[C@]3(C)C(=CC[C@@H]4[C@@]5(C)CC[C@H](O[C@@H]6OC[C@H](O)[C@H](O)[C@H]6O)C(C)(C)[C@@H]5CC[C@]43C)[C@@H]2[C@]1(C)O,11.7,-17.3
C[C@H]1[C@H](OC(=O)CCC(=O)O)O[C@@H]2O[C@@]3(C)CC[C@H]4[C@H](C)CC[C@@H]1[C@@]24OO3 [Artesunate],75.3,13.3
COc1ccc(-c2cc(=O)c3c(OC)c(OC)c(OC)c(OC)c3o2)cc1OC [Nobiletin],18.2,1.79
O=c1c(O)c(-c2ccc(O)c(O)c2)oc2cc(O)ccc12 [Fisetin],-12.4,-5.55
O=c1c(O)c(-c2ccc(O)cc2)oc2cc(O)cc(O)c12 [Kaempferol],-31.6,-3.82
Cc1cccc(C)c1NC(=O)c1ccccc1C(=O)O [Ftaxilide],0.849,-13
C[C@H]1O[C@@H](O[C@H]2[C@@H](O)C[C@H](O[C@H]3[C@@H](O)C[C@H](O[C@H]4CC[C@@]5(C)[C@H](CC[C@@H]6[C@@H]5CC[C@]5(C)[C@@H](C7=CC(=O)OC7)CC[C@]65O)C4)O[C@@H]3C)O[C@@H]2C)C[C@H](O)[C@@H]1O [Digitoxin],86.6,79.7
C=C1C[C@]23C[C@@]1(O)CC[C@H]2[C@@]12C=C[C@H](O)[C@@](C)(C(=O)O1)[C@H]2[C@@H]3C(=O)O [Gibberellic acid],2.06,-19.9
O=C(O)C1=C[C@@H](O)[C@@H](O)[C@H](O)C1 [Shikimic Acid],-0.739,-10.1
CC1(C)CC[C@]2(C)CC[C@]3(C)C(=CC[C@@H]4[C@@]5(C)CC[C@@H](O)[C@](C)(C(=O)O)[C@@H]5CC[C@]43C)[C@@H]2C1,17,5.6
CC(C)=CCC[C@](C)(O[C@@H]1O[C@H](CO[C@@H]2O[C@H](CO)[C@@H](O)[C@H](O)[C@H]2O)[C@@H](O)[C@H](O)[C@H]1O)[C@H]1CC[C@]2(C)[C@@H]1[C@H](O)C[C@@H]1[C@@]3(C)CC[C@H](O[C@@H]4O[C@H](CO)[C@@H](O)[C@H](O)[C@H]4O[C@@H]4O[C@H](CO)[C@@H](O)[C@H](O)[C@H]4O)C(C)(C)[C@@H]3CC[C@]12C [Ginsenoside Rb1],2.68,-8.16
C/C=C(/C)C(=O)O[C@H]1[C@H](OC(C)=O)[C@@]2(CO)C(CC1(C)C)C1=CCC3[C@@]4(C)CCC(O[C@@H]5O[C@H](C(=O)O)[C@@H](O[C@@H]6O[C@H](CO)[C@@H](O)[C@H](O)[C@H]6O)[C@H](O)[C@H]5O[C@@H]5O[C@H](CO)[C@@H](O)[C@H](O)[C@H]5O)[C@](C)(CO)C4CC[C@@]3(C)[C@]1(C)C[C@H]2O.C/C=C(\C)C(=O)O[C@H]1[C@H](OC(C)=O)[C@@]2(CO)C(CC1(C)C)C1=CCC3[C@@]4(C)CCC(O[C@@H]5O[C@H](C(=O)O)[C@@H](O[C@@H]6O[C@H](CO)[C@@H](O)[C@H](O)[C@H]6O)[C@H](O)[C@H]5O[C@@H]5O[C@H](CO)[C@@H](O)[C@H](O)[C@H]5O)[C@](C)(CO)C4CC[C@@]3(C)[C@]1(C)C[C@H]2O (stereo partly specified) [Escin],6.75,-3.16
"CC(C)=CCC[C@](C)(O[C@@H]1O[C@H](CO)[C@@H](O)[C@H](O)[C@H]1O)[C@H]1CC[C@]2(C)[C@@H]1[C@H](O)C[C@@H]1[C@@]3(C)CC[C@H](O)C(C)(C)[C@@H]3CC[C@]12C [(20S)-20-(β-D-Glucopyranosyloxy)dammara-24-ene-3β,12β-diol]",1.97,6.4
N[C@@H](C=O)[C@@H](O)[C@H](O)[C@H](O)CO [Glucosamine sulfate],91.6,67.2
CC(=O)O[C@H]1[C@H](O[C@H]2CC[C@]34C[C@]35CC[C@]3(C)[C@@H]([C@@]6(C)CC[C@@H](C(C)(C)O)O6)[C@@H](O)C[C@@]3(C)[C@@H]5C[C@H](O[C@@H]3O[C@H](CO)[C@@H](O)[C@H](O)[C@H]3O)[C@H]4C2(C)C)OC[C@@H](O)[C@@H]1O [Astragaloside II],33.6,29.8
COc1ccc(-c2cc(=O)c3c(O)c(OC)c(O)cc3o2)cc1OC [Eupatilin],22.6,0.387

# Two neighbouring entries from above:
SMILES,cell growth inhibition ratio (A2780) [%],cell growth inhibition ratio [1] [%]
C=C1C[C@]23C[C@@]1(O)CC[C@H]2[C@@]12C=C[C@H](O)[C@@](C)(C(=O)O1)[C@H]2[C@@H]3C(=O)O [Gibberellic acid],2.06,-19.9
O=C(O)C1=C[C@@H](O)[C@@H](O)[C@H](O)C1 [Shikimic Acid],-0.739,-10.1

# More entries

SMILES,cell growth inhibition ratio (A2780) [%],cell growth inhibition ratio [1] [%]
COc1cc2c(cc1OC)[C@@H]1Cc3ccc(OC)c(OC)c3CN1CC2 [Tetrahydropalmatine hydrochloride],11.8,2.62
CN[C@@H]1[C@H](O)[C@H](NC)[C@H]2O[C@@]3(O)C(=O)C[C@@H](C)O[C@H]3O[C@@H]2[C@H]1O [Spectinomycin dihydrochloride],7.14,6.91
NC(=O)CC[C@H](N)C(=O)O [L-Glutamine],3.86,-13.2
COc1cc(CO)ccc1O [Vanillyl Alcohol],1.1,12
OC[C@H]1O[C@@H]2O[C@H]3[C@H](O)[C@@H](O)[C@@H](O[C@H]4[C@H](O)[C@@H](O)[C@@H](O[C@H]5[C@H](O)[C@@H](O)[C@@H](O[C@H]6[C@H](O)[C@@H](O)[C@@H](O[C@H]7[C@H](O)[C@@H](O)[C@@H](O[C@H]8[C@H](O)[C@@H](O)[C@@H](O[C@H]1[C@H](O)[C@H]2O)O[C@@H]8CO)O[C@@H]7CO)O[C@@H]6CO)O[C@@H]5CO)O[C@@H]4CO)O[C@@H]3CO [Beta-Cyclodextrin],1.24,-7.49
Cc1cc2nc3c(=O)[nH]c(=O)nc-3n(C[C@H](O)[C@H](O)[C@H](O)CO)c2cc1C [Riboflavin],11.5,-16.5
COC1=CC(=O)C[C@@H](C)[C@]12Oc1c(Cl)c(OC)cc(OC)c1C2=O [Griseofulvin],72.9,56
Nc1nc(=O)c2c([nH]1)NC[C@H](CNc1ccc(C(=O)N[C@@H](CCC(=O)O)C(=O)O)cc1)N2C=O [Calcium Levofolinate],5.93,-18.4
NC[C@H]1O[C@H](O[C@H]2[C@H](O)[C@@H](O[C@H]3O[C@H](CO)[C@@H](O)[C@H](N)[C@H]3O)[C@H](N)C[C@@H]2N)[C@H](N)C[C@@H]1O [Tobramycin],6.03,-7.7
CC(C)=CC[C@@H](O)C1=CC(=O)c2c(O)ccc(O)c2C1=O [Shikonin],91.1,41
OC[C@@H](O)[C@H](O)[C@H](O)[C@@H](O)CO [Dulcitol],7.15,8.79
Oc1cc(O)c2c(c1)O[C@H](c1cc(O)c(O)c(O)c1)[C@H](O)C2 [Epigallocatechin],3.31,8.86
O=C([O-])c1cc(=O)[nH]c(=O)[nH]1.O=C([O-])c1cc(=O)[nH]c(=O)[nH]1.[Zn+2],21.3,2.24
O=C1c2c(O)cc(O)cc2O[C@H](c2cc(O)c(O)c(O)c2)[C@H]1O [Dihydromyricetin],-2.05,-1
Nc1ncnc2c1ncn2[C@@H]1O[C@H](COP(=O)(O)O)[C@@H](O)[C@H]1O [Adenosine 5'-monophosphate],-0.509,-5.84
COC(=O)C1=CO[C@@H](O)[C@@H]2C(CO)=CC[C@H]12 [Genipin],4.39,-1.47
CC(=O)O[C@H]1C[C@@]2(C)[C@@H](C[C@@H](O)[C@H]3[C@@]4(C)CC[C@@H](O)[C@@H](C)[C@@H]4CC[C@@]32C)/C1=C(\CCC=C(C)C)C(=O)O [Fusidine],-0.435,4.65
CC(C)CCC[C@@H](C)[C@H]1CC[C@H]2[C@@H]3CC[C@H]4CC(=O)CC[C@]4(C)[C@H]3CC[C@]12C [5alpha-Cholestan-3-one],3.25,-7.89
CCCCCCCCCCCCCCCCCCOCC(O)CO (stereo unspecified) [Batyl alcohol],13.9,11.3
OCc1c[nH]c2ccccc12 [Indole-3-carbinol],3.59,-4.15
O=C(O)CCC(=O)O [Succinic acid],7.83,-3.58
CC(=O)[C@H]1CC[C@H]2[C@@H]3CCC4=CC(=O)CC[C@]4(C)[C@H]3CC[C@]12C [Progesterone],34.2,23.5
OC[C@H]1O[C@@](CO)(O[C@H]2O[C@H](CO)[C@@H](O)[C@H](O)[C@H]2O)[C@@H](O[C@H]2O[C@H](CO)[C@@H](O)[C@H](O)[C@H]2O)[C@@H]1O [Melezitose],9.22,-21.4
C=C(C)[C@@H]1CC=C(CO)CC1 [Perillyl alcohol],2.52,9.19
